# In the supplement of paper PMC6411743:
# ± gives the standard deviation of the averaged measurements. This is one part of the list.
# Assays:
# Experiment in all cases: NP40-soluble protein abundance relative to vehicle (solubility fold change) (ratio); higher = more soluble protein in presence of GTP
# [1] = target: T1, UniProt Q15813 and related entries
# T1 sequence (whole entry): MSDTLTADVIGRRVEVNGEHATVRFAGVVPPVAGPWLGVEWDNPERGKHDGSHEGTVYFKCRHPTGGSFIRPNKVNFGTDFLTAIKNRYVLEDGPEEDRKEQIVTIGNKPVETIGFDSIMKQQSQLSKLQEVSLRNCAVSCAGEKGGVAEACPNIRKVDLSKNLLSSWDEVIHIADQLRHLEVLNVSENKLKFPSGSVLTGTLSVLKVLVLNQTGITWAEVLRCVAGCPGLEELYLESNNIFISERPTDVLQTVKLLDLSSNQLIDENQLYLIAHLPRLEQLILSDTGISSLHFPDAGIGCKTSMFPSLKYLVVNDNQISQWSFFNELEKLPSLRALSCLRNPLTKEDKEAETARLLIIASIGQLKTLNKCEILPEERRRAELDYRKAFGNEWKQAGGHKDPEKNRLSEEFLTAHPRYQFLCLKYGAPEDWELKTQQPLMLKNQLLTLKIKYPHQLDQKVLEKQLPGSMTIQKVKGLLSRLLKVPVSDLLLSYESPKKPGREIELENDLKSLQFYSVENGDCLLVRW
# Method in brief: (§1)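 Values are fold changes against the detergent-processed vehicle, based on vsn-normalised intensities. Jurkat crude lysate was treated at eight concentrations from 0.1 to 10 mM (10 min at room temperature, then 3 min at 37 °C), solubilised with 0.8% NP40 and benzonase, ultracentrifuged and analysed by TMT-labelled LC-MS/MS over three independent experiments.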
# [2] = target: T2, UniProt Q16134 and related entries
# T2 sequence (whole entry): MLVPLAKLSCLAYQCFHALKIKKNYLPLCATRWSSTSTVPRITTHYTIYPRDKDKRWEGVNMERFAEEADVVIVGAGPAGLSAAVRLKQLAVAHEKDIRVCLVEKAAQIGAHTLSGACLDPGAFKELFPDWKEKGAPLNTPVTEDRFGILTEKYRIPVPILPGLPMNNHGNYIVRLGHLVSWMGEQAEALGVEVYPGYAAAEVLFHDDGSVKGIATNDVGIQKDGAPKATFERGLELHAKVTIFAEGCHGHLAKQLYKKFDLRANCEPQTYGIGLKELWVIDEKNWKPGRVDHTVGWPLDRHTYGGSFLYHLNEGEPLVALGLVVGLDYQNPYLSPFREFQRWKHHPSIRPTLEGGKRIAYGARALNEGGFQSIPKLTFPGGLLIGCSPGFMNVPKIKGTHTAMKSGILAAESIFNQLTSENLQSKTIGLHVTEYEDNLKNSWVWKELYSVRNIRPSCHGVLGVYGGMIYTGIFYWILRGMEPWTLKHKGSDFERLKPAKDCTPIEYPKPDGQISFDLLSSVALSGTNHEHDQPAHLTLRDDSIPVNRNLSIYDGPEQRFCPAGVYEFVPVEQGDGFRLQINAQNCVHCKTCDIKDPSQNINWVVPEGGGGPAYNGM
# Method in brief: as §1
# UniProt Q16514-2|Q16514 = target: T3, UniProt Q16514-2|Q16514
# T3 sequence (whole entry): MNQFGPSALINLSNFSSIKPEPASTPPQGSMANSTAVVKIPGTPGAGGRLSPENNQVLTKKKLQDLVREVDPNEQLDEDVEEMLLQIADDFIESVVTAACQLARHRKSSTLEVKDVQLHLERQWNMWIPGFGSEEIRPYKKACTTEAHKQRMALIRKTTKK
# Method in brief: as §1
# [3] = target: T4, UniProt Q5T1V6 and related entries
# T4 sequence (whole entry): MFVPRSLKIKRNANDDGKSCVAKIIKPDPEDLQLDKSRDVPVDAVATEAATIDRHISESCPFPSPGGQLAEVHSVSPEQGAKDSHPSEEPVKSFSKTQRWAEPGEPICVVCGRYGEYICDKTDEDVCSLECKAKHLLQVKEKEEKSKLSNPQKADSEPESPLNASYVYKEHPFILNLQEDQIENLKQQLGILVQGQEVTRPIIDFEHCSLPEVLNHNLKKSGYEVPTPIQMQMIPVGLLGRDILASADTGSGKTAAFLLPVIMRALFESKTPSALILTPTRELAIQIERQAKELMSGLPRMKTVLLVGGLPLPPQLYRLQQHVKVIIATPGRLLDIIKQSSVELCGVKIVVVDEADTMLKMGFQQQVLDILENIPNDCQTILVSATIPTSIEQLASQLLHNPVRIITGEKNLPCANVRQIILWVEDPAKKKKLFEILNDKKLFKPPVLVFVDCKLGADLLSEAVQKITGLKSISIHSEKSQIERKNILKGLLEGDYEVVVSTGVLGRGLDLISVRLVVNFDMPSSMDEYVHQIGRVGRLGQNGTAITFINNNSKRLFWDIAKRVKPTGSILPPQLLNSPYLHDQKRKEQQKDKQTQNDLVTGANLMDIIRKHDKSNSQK
# Method in brief: as §1
structure (smiles),measurement,setting,value
Nc1nc2c(ncn2[C@@H]2O[C@H](COP(=O)(O)OP(=O)(O)OP(=O)(O)O)[C@@H](O)[C@H]2O)c(=O)[nH]1 [guanosine triphosphate],NP40-soluble protein abundance,[1]; concentration: 4mM,0.903 ± 0.022
same,NP40-soluble protein abundance,[1]; concentration: 6mM,0.886 ± 0.035
same,NP40-soluble protein abundance,[1]; concentration: 8mM,0.874 ± 0.058
same,NP40-soluble protein abundance,[1]; concentration: 10mM,0.858 ± 0.072
same,NP40-soluble protein abundance,[2]; concentration: 0.1mM,1.03 ± 0.04
same,NP40-soluble protein abundance,[2]; concentration: 0.5mM,1.022 ± 0.0076
same,NP40-soluble protein abundance,[2]; concentration: 1mM,0.9438 ± 0.006
same,NP40-soluble protein abundance,[2]; concentration: 2mM,0.944 ± 0.038
same,NP40-soluble protein abundance,[2]; concentration: 4mM,0.916 ± 0.033
same,NP40-soluble protein abundance,[2]; concentration: 6mM,0.923 ± 0.026
same,NP40-soluble protein abundance,[2]; concentration: 8mM,0.896 ± 0.036
same,NP40-soluble protein abundance,[2]; concentration: 10mM,0.865 ± 0.07
same,NP40-soluble protein abundance,UniProt Q16514-2|Q16514; concentration: 0.1mM,1.02 ± 0.031
same,NP40-soluble protein abundance,UniProt Q16514-2|Q16514; concentration: 0.5mM,1.08 ± 0.014
same,NP40-soluble protein abundance,UniProt Q16514-2|Q16514; concentration: 1mM,1.19 ± 0.1
same,NP40-soluble protein abundance,UniProt Q16514-2|Q16514; concentration: 2mM,1.19 ± 0.055
same,NP40-soluble protein abundance,UniProt Q16514-2|Q16514; concentration: 4mM,1.21 ± 0.073
same,NP40-soluble protein abundance,UniProt Q16514-2|Q16514; concentration: 6mM,1.21 ± 0.13
same,NP40-soluble protein abundance,UniProt Q16514-2|Q16514; concentration: 8mM,1.27 ± 0.16
same,NP40-soluble protein abundance,UniProt Q16514-2|Q16514; concentration: 10mM,1.37 ± 0.17
same,NP40-soluble protein abundance,[3]; concentration: 0.1mM,1.02 ± 0.05
same,NP40-soluble protein abundance,[3]; concentration: 0.5mM,1.03 ± 0.032
same,NP40-soluble protein abundance,[3]; concentration: 1mM,0.964 ± 0.05
same,NP40-soluble protein abundance,[3]; concentration: 2mM,0.985 ± 0.026
same,NP40-soluble protein abundance,[3]; concentration: 4mM,0.969 ± 0.043
same,NP40-soluble protein abundance,[3]; concentration: 6mM,0.959 ± 0.025
same,NP40-soluble protein abundance,[3]; concentration: 8mM,0.92 ± 0.057
same,NP40-soluble protein abundance,[3]; concentration: 10mM,0.901 ± 0.043

# Reformatted as tab-separated lines: entries from further up.
structure (smiles)	measurement	setting	value
Nc1nc2c(ncn2[C@@H]2O[C@H](COP(=O)(O)OP(=O)(O)OP(=O)(O)O)[C@@H](O)[C@H]2O)c(=O)[nH]1 [guanosine triphosphate]	NP40-soluble protein abundance	[1]; concentration: 4mM	0.903 ± 0.022
same	NP40-soluble protein abundance	[1]; concentration: 6mM	0.886 ± 0.035
